Data as given in PubChem BioAssay AID686943 (Drosophila RNAi Screening Center, 2013).

Purpose: 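Knockdowns that increase or decrease active ERK after insulin receptor stimulation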 (primary screen)
Cells: Drosophila S2R+ haemocyte-like cells expressing YFP-tagged ERK (Rolled)
Knock-down reagent: long dsRNA against Drosophila genes
Treatment: insulin stimulation versus unstimulated cells; dose and duration not given
Detection: 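Per-plate z-scores of phospho-ERK immunostaining normalised to YFP-tagged ERK, measured with and without insulin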
Direction: replicate 1, z-score of dpERK with insulin and replicate 2, z-score of dpERK with insulin: higher = more active ERK per ERK-YFP after insulin; replicate 1, z-score of dpERK under basal conditions: higher = more basal active ERK per ERK-YFP
The deposit covers about 23,000 reagents; shown is a random part of those with a known target gene and a result. 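Extra replicates exist only for a retested subset of genes; insulin dose and duration not given; both raised and lowered dpERK matter.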 A plus sign joins genes that one reagent is predicted to hit. Not all columns of the deposit are shown. Not stated in the record: the amount of reagent, the time to read-out.

| Target gene | amplicon | replicate 1, z-score of dpERK with insulin | replicate 2, z-score of dpERK with insulin | replicate 1, z-score of dpERK under basal conditions |
| --- | --- | --- | --- | --- |
| CG31730 | DRSC01308 | -0.15 | 0.13 | 0.1 |
| Vml | DRSC17695 | 0.79 | 0.46 | 1.61 |
| Vml | DRSC18529 | 1.67 | 0.14 | 0.66 |
| CG10550 | DRSC14251 | 0.51 | 0.19 | 0.43 |
| CG7139 | DRSC11611 | -0.54 | -0.01 | -0.08 |
| CG1628 | DRSC18109 | 0.47 | -0.11 | 0.43 |
| Ugt36F1 | DRSC02601 | -0.44 | 0.04 | 0.59 |
| Kdm2 | DRSC14286 | -0.72 | -0.15 | 0.05 |
| CG13876 | DRSC08346 | 0.25 | 0.61 | -0.27 |
| Smg5 | DRSC03124 | -4.94 | -4.36 | -0.21 |
| Ent1 | DRSC00330 | -0.41 | -0.22 | -0.01 |
| Tsp42Ej | DRSC06113 | -0.64 | -0.31 | -0.28 |
| CG33253 | DRSC19547 | 0.81 | -0.1 | 0.31 |
| CG33253 | DRSC20053 | 0.65 | 0.05 | 0.6 |
| PH4alphaPV | DRSC22400 | 0.17 | 0.95 | 0.77 |
| RhoGEF3 | DRSC08266 | 0.1 | 0.46 | 0.76 |
| RhoGEF3 | DRSC08351 | -0.1 | 0.37 | 0.03 |
| RhoGEF3 | DRSC08352 | -0.16 | -0.18 | 0.29 |
| RhoGEF3 | DRSC08353 | -0.12 | -0.5 | 0.29 |
| homer | DRSC03547 | -0.41 | -0.88 | -0.44 |
| AdamTS-A | DRSC14992 | 0.39 | 0.34 | 0.22 |
| AdamTS-A | DRSC15966 | 0.4 | -0.5 | -2.34 |
| CG11041 | DRSC06025 | 0.3 | -0.65 | -0.53 |
| sNPF | DRSC02309 | -0.47 | -0.8 | 1.71 |
| CG13046 | DRSC09927 | -0.09 | 0.45 | -0.2 |
| CG32213 + CG12519 + 825-Oak + 1 more | DRSC09615 | 0.37 | -0.44 | 0.17 |
| CG18586 | DRSC10325 | 0.44 | 0.58 | -1 |
| faf | DRSC16942 | 0.58 | 0.49 | 0.22 |
| PK1-R | DRSC16577 | 0.82 | 0.62 | 0.86 |
| Gmppb | DRSC12169 | -0.21 | 1.32 | -0.53 |
| Tmtc1 | DRSC00147 | 0.34 | 0.87 | -0.87 |
| Tmtc1 | DRSC00151 | -0.05 | -0.62 | -0.6 |
| Tmtc1 | DRSC00314 | 1.24 | -0.07 | 0.65 |
| Tmtc1 | DRSC00411 | -0.7 | 0.84 | -0.62 |
| l(3)87Df | DRSC16982 | 0.35 | 0.75 | -0.69 |
| CG3328 | DRSC04357 | -0.16 | 0.03 | -0.26 |
| Octbeta1R | DRSC16134 | 1.25 | 0.39 | 0.58 |
| CG14050 | DRSC18594 | 0.3 | 0.76 | 0.63 |
| CG1138 | DRSC12530 | 0.54 | -0.07 | -0.09 |
| CG32652 (retired record) | DRSC18942 | 1.73 | -0.02 | -0.11 |
| CG32652 (retired record) | DRSC22662 | -2.73 | 0.27 | -0.47 |
| CG6340 | DRSC19987 | -0.91 | -0.93 | 0.28 |
| jb | DRSC20531 | 0.54 | 0.32 | -0.5 |
| CR31427 | DRSC22675 | 0.25 | 0.54 | 0.29 |
| Ucp4A | DRSC19996 | 1.01 | 0.12 | 0.9 |
| CG5112 | DRSC15718 | 0.01 | 1.02 | 0.67 |
| mv | DRSC08208 | -0.21 | -0.56 | -0.62 |
| mv | DRSC08570 | -0.55 | 0.07 | 0.27 |
| Nup75 | DRSC06947 | -0.17 | -0.11 | -1.77 |
| CG16888 | DRSC02541 | 0.31 | 0.82 | 1.6 |
| Gmd | DRSC03119 | -0.42 | -0.04 | 0.03 |
| CG9395 | DRSC03218 | 1.37 | 1.82 | 0.36 |
| Flad1 | DRSC19898 | 0.64 | 0.39 | -0.32 |
| Iyd | DRSC10614 | -0.33 | -0.24 | -0.59 |
| Iyd | DRSC10615 | 0.1 | 0.53 | -1.09 |
| CG12817 + CG12420 | DRSC22814 | 0.96 | 1.04 | 1.01 |
| CG34171 | DRSC01637 | 0.2 | 0.28 | -0.23 |

Part of the list above in another layout:
CG11041 [DRSC06025]
- replicate 1, z-score of dpERK with insulin: 0.3
- replicate 2, z-score of dpERK with insulin: -0.65
- replicate 1, z-score of dpERK under basal conditions: -0.53

sNPF [DRSC02309]
- replicate 1, z-score of dpERK with insulin: -0.47
- replicate 2, z-score of dpERK with insulin: -0.8
- replicate 1, z-score of dpERK under basal conditions: 1.71

CG13046 [DRSC09927]
- replicate 1, z-score of dpERK with insulin: -0.09
- replicate 2, z-score of dpERK with insulin: 0.45
- replicate 1, z-score of dpERK under basal conditions: -0.2

CG32213 + CG12519 + 825-Oak + 1 more [DRSC09615]
- replicate 1, z-score of dpERK with insulin: 0.37
- replicate 2, z-score of dpERK with insulin: -0.44
- replicate 1, z-score of dpERK under basal conditions: 0.17

CG18586 [DRSC10325]
- replicate 1, z-score of dpERK with insulin: 0.44
- replicate 2, z-score of dpERK with insulin: 0.58
- replicate 1, z-score of dpERK under basal conditions: -1
